Consider two compounds from patent US9809586B2, “Inhibitors of collagen prolyl 4-hydroxylase” (WISCONSIN ALUMNI RESEARCH FOUNDATION, priority 2015, dated 2017).

The data set in a line: Assay of Fe(II)-affinity for biheteroaryl ligands (Fe20-EC50 titration, spectrophotometry). It counts as physicochemical. The protocol: A library of biheteroaryl compounds (FIG. 2) was prepared and evaluated them as iron chelators in vitro. The library was assembled either from commercial vendors (pypyr and pyim) or by synthesis using palladium-catalyzed cross-coupling reactions (pypyraz, pypyrid, pyox, and pythi). To evaluate the iron affinity of these compounds in vitro, titration experiments were performed to determine the half-maximal concentration required to form a complex with 20 μM Fe(II) at pH 7.0.
The affinity of biheteroaryl ligands for Fe(II) was determined comparatively by measuring the half-maximal concentration (EC50) required for binding 20 μM Fe(II) (Fe20-EC50) in sodium phosphate buffer at pH 7. Stock solutions of ligands were prepared in either water for high affinity ligands (typically Fe20-EC50<1 mM) or DMSO for low affinity ligands (typically Fe20-EC50>1000 μM). Stock solutions of FeSO4 were prepared in H2O and used within 3 hours of preparation. […] For high affinity ligands, solutions were allowed to equilibrate for 15 min, after which the absorbance was recorded at the λmax for the complex under study. For most low affinity ligands, the corresponding Fe(II) complexes were unstable and observed to dissociate over time. Therefore, the absorbance value was determined within 30 s of mixing, where the absorbance was measured at the λmax for the complex under study. […]

The structures appear in SMILES notation.

For the compound `O=C(O)c1ccc(-c2ncc(C(=O)O)[nH]2)nc1` [pyimDC, 2-(5-Carboxy-1-H-imidazol-2-yl)pyridine-5-carboxylic Acid], the “Complex formation with free iron detected by spectrophotometry” value (concentrations up to 1 mM) is listed as “not observe”.
Consider `c1ccc(-c2ncco2)nc1` [pyox, 2-(Oxazol-2-yl)pyridine], for which the “Formation of Fe(II) complex” value (20 μM Fe(II), pH 7.0) was “not observed”.
